Laboratory results published in PubChem BioAssay AID2685 (National Center for Advancing Translational Sciences (NCATS), 2010).
The list shows a part of the results. Shown are side measurements of this screen, not its main read-out; they come without a call. The list favours compounds with an active or inconclusive main result. Potencies come from curve fits of mixed quality, noted in brackets.

Assay: qHTS Assay for Lipid Storage Modulators in Drosophila S3 Cells;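 on cell number change: cells counted by Cell Tracker Red CMTPX staining in the red channel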
Conditions: BODIPY lipid droplet fluorescence, 18-24 h; for cell number change: measured here: cell count max response, cells fed with added oleic acid
Method in brief: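 Drosophila S3 cells got compounds at several concentrations plus oleic acid (400 uM solution). Laser-scanning cytometry with 488 nm excitation read lipid droplets at 500-530 nm and cells at 575-640 nm. Percent activity was relative to 20 uM Triacsin C.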

[1] = measured here: cell number channel AC50, cells fed with added oleic acid
[2] = measured here: lipid fluorescence (Fed channel) AC50, cells fed with added oleic acid

## COc1ccc(C(=O)NC(=O)NC2(C(Cl)(Cl)Cl)OCCO2)cc1
  cell number change: 15.9%
[1]
  AC50: 0.651 µM [rising, full curve, poor fit]

## O=C(CSc1nc2ccccc2c(=O)[nH]1)c1ccc(O)cc1O
  cell number change: 24.9%
[2]
  AC50: 4.11 µM [falling, partial curve, poor fit]

## C[C@]12CC[C@@H]3c4ccc(OC(=O)c5ccccc5)cc4CC[C@H]3[C@@H]1CC[C@@H]2O
  cell number change: -49.3%
[1]
  AC50: 29.1 µM [falling, single point]
[2]
  AC50: 23.1 µM [falling, partial curve]

## CN(C(=O)COC(=O)C1CCN(S(=O)(=O)c2c(Cl)cccc2Cl)CC1)c1ccccc1
  cell number change: 75.5%

## Cc1ccc(-c2nnc(N3CCCCC3)c3ccccc23)cc1S(=O)(=O)NCC1CCCO1 (configuration not stated)
  cell number change: 1.53%

## Cc1cccc(N2CCN(C(=O)c3cccc(N4CCCC4=O)c3)CC2)c1C
[2]
  AC50: 29.1 µM [rising, single point]

## CC1CC(NC(=O)Cc2ccc(Br)cc2)CC(C)(C)C1 (configuration not stated)
  cell number change: -24.5%
[2]
  AC50: 29.1 µM [falling, single point]

## Cc1ccc(NC(=S)Nc2cccnc2)c(S(=O)(=O)N2CCCCC2)c1
  cell number change: -1.56%
[1]
  AC50: 0.461 µM [rising, single point]

## CCc1c(C)nc2c(-c3ccccc3)c(C)[nH]n2c1=O
  cell number change: -16.7%
[2]
  AC50: 0.651 µM [falling, partial curve, poor fit]

## Cc1cnc(NC2=NCCC2)s1
  cell number change: -3.84%
[1]
  AC50: 1.03 µM [falling, full curve]
[2]
  AC50: 1.03 µM [falling, full curve]

## CC(=O)Nc1ccc(NCC(=O)c2ccccc2)cc1
  cell number change: 20.7%
[2]
  AC50: 29.1 µM [falling, single point]

## CC(=O)c1cccc(S(=O)(=O)N(CCCO)Cc2cc3ccc(C)cc3[nH]c2=O)c1
[2]
  AC50: 5.17 µM [rising, full curve, poor fit]

## CCCCC(=O)N(CCOC)c1nnc(-c2ccc(OC)cc2)s1
  cell number change: 9.06%
[2]
  AC50: 25.9 µM [rising, single point]

## CN(CCO)c1cc(Sc2nc3ccccc3s2)c2nonc2c1[N+](=O)[O-]
  cell number change: -83.7%
[1]
  AC50: 29.1 µM [falling, single point]
[2]
  AC50: 29.1 µM [falling, single point]

## O=C(Nc1cccc(NC(=O)c2ccco2)c1)c1ccc2c(c1)OCCO2
  cell number change: -8.2%
[2]
  AC50: 32.6 µM [falling, single point]

## COC(=O)c1sccc1Oc1ccc(Cl)cc1N1C(=O)CCC1=O
  cell number change: 10.3%

## COc1ccccc1CNC(=O)CN(C)S(=O)(=O)c1ccc2c(c1)c(=O)n(C)c(=O)n2C
[2]
  AC50: 5.17 µM [falling, full curve]

## Cc1ccc(-c2nc3ccccc3[nH]2)cc1NC(=O)/C=C/c1ccco1
  cell number change: -24%
[2]
  AC50: 4.11 µM [falling, partial curve]

## NS(=O)(=O)c1ccc(CCNC(=O)COc2ccc3c4c(c(=O)oc3c2)CCC4)cc1
  cell number change: 34.3%
[1]
  AC50: 16.4 µM [rising, single point]

## CCOC(=O)N1CCN(C(=O)C2CCCN(S(=O)(=O)c3c(C)cc(C)cc3C)C2)CC1 (configuration not stated)
  cell number change: -22.4%

## O=C(c1ccc(CS(=O)c2ccc(F)cc2)o1)N1CCN(C2CCCCC2)CC1 (configuration not stated)
  cell number change: -24.8%
[2]
  AC50: 9.2 µM [rising, partial curve]

## Cc1nc(SC(C)C(=O)c2c(N)n(C)c(=O)n(C)c2=O)c2c(C)c(C)sc2n1 (configuration not stated)
  cell number change: 43.6%
[1]
  AC50: 1.84 µM [rising, full curve, poor fit]
[2]
  AC50: 2.31 µM [rising, full curve]

## O=C(Nc1ccccc1-c1ccccc1)C1CCC1
  cell number change: 39.6%
[2]
  AC50: 0.103 µM [rising, single point]

## COc1ccccc1NC(=O)COc1ccc2ccccc2c1
  cell number change: -11.4%
[2]
  AC50: 29.1 µM [falling, single point]

## C/C(=C\c1ccccc1)CN1CCN(C)CC1
  cell number change: 32.3%
[1]
  AC50: 29.1 µM [rising, single point]
[2]
  AC50: 29.1 µM [rising, single point]

## CSCCC(NS(=O)(=O)c1ccc(Cl)cc1)C(=O)OCC(=O)c1ccc(F)cc1 (configuration not stated)
  cell number change: 155%
[1]
  AC50: 10.3 µM [rising, partial curve]

## CN(C)S(=O)(=O)c1cccc(C(=O)Nc2ccccc2N2CCCCC2)c1
  cell number change: -2.52%

## Cc1ccc([N+](=O)[O-])cc1NC(=O)CCc1ccccc1
  cell number change: 3.87%

## CC(=O)Nc1ccc(NC(=O)C(C)OC(=O)C2CCN(S(=O)(=O)c3ccccc3C(F)(F)F)CC2)cc1 (configuration not stated)
  cell number change: -25%
[2]
  AC50: 18.4 µM [rising, partial curve, poor fit]

## CCCCN(C(=O)CSCC(=O)Nc1cccc(C)c1)c1c(N)n(Cc2ccccc2)c(=O)[nH]c1=O
  cell number change: -19%
[2]
  AC50: 6.51 µM [rising, single point]

## COc1cc(-c2nc(-c3ccc(NC(=O)c4ccc(Br)o4)cc3)no2)cc(OC)c1OC
  cell number change: -145%
[1]
  AC50: 23.1 µM [falling, single point]
[2]
  AC50: 0.82 µM [rising, single point]

## Cc1cccc(-n2c(SCc3cc(=O)n4ccsc4n3)nc3ccccc32)c1
[2]
  AC50: 13 µM [falling, partial curve]

## COc1cc2nc(CN3C(=O)c4ccccc4C3=O)oc(=O)c2cc1OC
  cell number change: -7.62%

## O=C(Nc1ccccc1F)c1ccc2ncsc2c1
[2]
  AC50: 6.51 µM [falling, single point]

## S=C(NCc1ccc2[nH]c3c(c2c1)CCCC3)Nc1ccccc1
  cell number change: -17.4%
[2]
  AC50: 0.58 µM [rising, full curve]

## O=C(NCc1ccccc1Cl)C1CC(=O)N(Cc2ccccc2)C1 (configuration not stated)
  cell number change: -7.51%

## O=C(/C=C/c1ccco1)NC(=S)Nc1ccccc1O
  cell number change: 17.1%

## O=C(COC(=O)c1cccnc1Cl)Nc1ccc2c(c1)OCO2
  cell number change: 57.9%
[1]
  AC50: 29.1 µM [rising, single point]

## CCCCOc1ccc(N2C(=O)CC(N(O)c3ccccc3)C2=O)cc1 (configuration not stated)
  cell number change: -6.81%
[2]
  AC50: 0.116 µM [falling, full curve]

## CC(=O)c1ccc(OCCCOc2cccc3cccnc23)cc1
  cell number change: 0.351%
[2]
  AC50: 29.1 µM [falling, single point]
